Experimental data published in article doi:10.1101/2020.08.28.269175.

The chains behind the UniProt entries cited, without tags or fusion partners. Where a name states a change or a piece, a line headed by the entry shows the natural chain unless it says otherwise. Residues count along the entry.
UniProt P0DTD8, whole entry, stated change not applied: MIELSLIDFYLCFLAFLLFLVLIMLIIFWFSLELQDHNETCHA
UniProt P0DTC7, 16-121, stated change not applied: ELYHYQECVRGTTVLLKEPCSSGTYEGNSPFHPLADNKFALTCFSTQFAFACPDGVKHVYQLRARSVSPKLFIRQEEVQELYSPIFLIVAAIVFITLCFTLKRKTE

Legend:
Assay in all cases: proximity labelling
[1] = molecular target: SARS-CoV-2 NSP3 (SARS-CoV-2) (UniProt P0DTD1)
[2] = molecular target: SARS-CoV-2 ORF7B (SARS-CoV-2) (UniProt P0DTD8)
[3] = molecular target: SARS-CoV-2 ORF7A (SARS-CoV-2) (UniProt P0DTC7)

| Substance | binding [2] | binding [3] | further results |
| --- | --- | --- | --- |
| FXR2 (from UniProt P51116 1-673) |  |  | binding [1]: binds |
| SLC1A5 (from UniProt Q15758 1-541) | binds |  |  |
| SLC4A2 (from UniProt P04920 1-1241) |  | binds |  |
| SLC6A6 (from UniProt P31641 1-620) |  | binds |  |
| SLC6A9 (from UniProt P48067 1-706) |  | binds |  |
| SLC26A11 (from UniProt Q86WA9 1-606) | binds |  |  |
| SLC39A14 (from UniProt Q15043 31-492) | binds |  |  |

These are yes or no findings as the source states them, for the method shown. Binding seen in cells or lysates may run through a third protein. Here binding means that the protein was enriched with, or labelled near, the bait; the list need not be complete.
